# Structures can show the parent of a compound that is named as a salt. The list shows a part of the results. This is a noisy data set.
# Test system: Salmonella enterica serovar Typhimurium ST313 D23580
# Assay: normalized bacterial growth (OD600 20 h minus 0 h, interquartile-mean normalized) (fraction of plate interquartile mean); higher = more bacterial growth (less inhibition)
# Conditions: LPM (pH 5.8, low phosphate, low Mg2+), concentration: 10 µM, temperature: 37 °C
row,SMILES,normalized bacterial growth
1,C=C(C)[C@@H]1[C@H]2OC(=O)[C@@H]1[C@]1(O)C[C@H]3OC34C(=O)O[C@H]2[C@@]41C.CC(C)(O)[C@@H]1[C@H]2OC(=O)[C@@H]1[C@]1(O)C[C@H]3OC34C(=O)O[C@H]2[C@@]41C (stereo not given in full) [Picrotoxin],1.01
2,COC1=C[C@@H]2C3=C([C@@H]2C1=O)[C@@H](NC(C)=O)CCc1cc(OC)c(OC)c(OC)c13 [Lumicolchicine gamma],1.02
3,CC1=C[C@H]2[C@@]3(O)[C@H](C)[C@@H](O)[C@]4(O)[C@H]([C@@H]3C=C(CO)C[C@]2(O)C1=O)C4(C)C,1.14
4,CC(C)NP(=O)(NC(C)C)OP(=O)(NC(C)C)NC(C)C [Tetraisopropyl pyrophosphoramide],0.838
5,C=C[C@]12CN(C)[C@@H]3[C@H]4CO[C@H](C[C@H]41)[C@]1(C(=O)Nc4ccccc41)[C@@H]32 [Gelsemine],1.23
6,C=C[C@]12CN(C)[C@@H]3[C@H]4CO[C@H](C[C@H]41)[C@]1(C(=O)Nc4ccccc41)[C@@H]32,1.06
7,Cc1c2ccncc2c(C)c2c1[nH]c1ccccc12,1.22
8,C=CCc1ccccc1OCC(O)CNC1(C)CCC(C(C)(C)NC(=O)CBr)CC1 (stereo not given) [Bromoacetyl alprenolol menthane],1.45
9,CC(=O)OCC(=O)[C@H]1CC[C@H]2[C@@H]3CC[C@H]4C[C@H](O)CC[C@]4(C)[C@H]3C(=O)C[C@]12C [Alfadolone acetate],1.13
10,CC(=O)NBr [N-Bromoacetamide],1.09
11,CSC(=S)NCc1c[nH]c2ccccc12,1.2
12,COS(C)(=O)=O,0.985
13,CC(=O)OC1CCC23C(=O)OC45CCC(C6=CC(=O)OC6)C4(C)CCC2C5CCC3(O)C1 (stereo not given),1.29
14,CCCCN(CC)c1c([N+](=O)[O-])cc(C(F)(F)F)cc1[N+](=O)[O-],1
15,NCc1cc(O)no1 [Muscimol hydrobromide],1.03
16,COc1cc2c(cc1OC)C(C)NCC2 (stereo not given),0.795
17,NC(=O)CN1CCCC1=O [Piracetam],1.08
18,COc1c2c3c4c(c(OC)c(=O)c5c(O)cc(OC)c(c6c(OC)cc(O)c(c1=O)c63)c54)[C@@H](C(C)=O)[C@@](C)(O)C2,1.24
19,O=P1(NCCCl)OCCCN1CCCl (stereo not given),0.0464
20,CO[C@H](C)[C@](O)(C(=O)OCC1=CCN2CC[C@H](O)[C@@H]12)C(C)C [Heliotrine],0.976
21,CO[C@H](C)[C@](O)(C(=O)OCC1=CCN2CC[C@H](O)[C@@H]12)C(C)C,0.969
22,Oc1ccc2c3c1O[C@H]1c4oc5ccccc5c4C[C@@]4(O)[C@@H](C2)N(CC2CC2)CC[C@]314 [Naltriben methanesulfonate],0.739
23,C=C(C)[C@@H]1[C@H]2OC(=O)[C@@H]1[C@]1(O)C[C@H]3O[C@]34C(=O)O[C@H]2[C@]14C [Picrotoxinin],1.13
24,C=C(C)[C@@H]1[C@H]2OC(=O)[C@@H]1[C@]1(O)C[C@H]3O[C@]34C(=O)O[C@H]2[C@]14C,0.78
25,CC(C)c1c(CN(C)C(C)Cc2ccccc2)n(C)n(-c2ccccc2)c1=O (stereo not given),1.14

row,SMILES,normalized bacterial growth
1,N#CCCN [3-Aminopropionitrile fumarate],1.07
2,Oc1ccc(Cl)cc1,1.2
3,Cc1cccc(C)c1NC1=NCCCS1 [Xylazine hydrochloride],0.651
4,Cc1cccc(C)c1NC1=NCCCS1,1.11
5,CCNC(=O)[C@H]1O[C@@H](n2cnc3c(N)ncnc32)[C@H](O)[C@@H]1O [5'-N-Ethylcarboxamidoadenosine],1.19
6,O=C1CCC[C@@H]2[C@H]3CCCN4CCC[C@@H](CN12)[C@@H]34,0.993
7,CC(=O)OCC1=C(C(=O)O)N2C(=O)[C@@H](NC(=O)CCC[C@@H](N)C(=O)O)[C@H]2SC1,0.807
8,COc1c2c(cc3c1OCO3)CC[N+](C)=C2,1.21
9,Cc1ccc(S(=O)(=O)N[C@@H](CCCCN)C(=O)CCl)cc1 [Na-p-Tosyl-L-lysine chloromethyl ketone hydrochloride],1.01
10,CCCN1CCC[C@@H](c2cccc(O)c2)C1 [S(-)-3PPP hydrochloride],1.02
11,CC(C)(C)[C@]1(O)CC2OC(=O)CC23C(=O)OC2OC(=O)[C@H](O)C231 (stereo not given in full),1.22
12,C=C1[C@@H](C)[C@H]2[C@H](Cc3ccccc3)NC(=O)[C@]23OC(=O)/C=C/[C@H](O)CCC[C@@H](C)C/C=C/[C@H]3[C@@H]1O,1.05
13,ClC1=C(Cl)C2(Cl)C3C4C=CC(C4)C3C1(Cl)C2(Cl)Cl (stereo not given),1.14
14,NC(=O)C[S+]([O-])C(c1ccccc1)c1ccccc1 (stereo not given),0.64
15,COc1cc2c(c(OC)c1OC)-c1ccc(O)c(=O)cc1[C@@H](N)CC2 [Trimethylcolchicinic acid],0.938
16,CC[C@@H](C(=O)O)[C@@H]1O[C@@H]([C@@H](C)[C@H](O)[C@H](C)C(=O)[C@H](CC)[C@H]2O[C@]3(C=C[C@@H](O)[C@]4(CC[C@@](C)([C@H]5CC[C@](O)(CC)[C@H](C)O5)O4)O3)[C@H](C)C[C@@H]2C)[C@@H](C)C[C@@H]1C,0.603
17,COC(=O)COc1cc(Cl)c(Cl)cc1Cl,1.28
18,CC[C@@H]1/C=C/C=C/C[C@H](C)[C@H](O)[C@](C)(O)C(=O)[C@H](C)[C@@H](O)[C@H](C)C(=O)[C@H](C)[C@@H](O)[C@H](C)/C=C/C(=O)O[C@H]2[C@@H](C)[C@@H](CC1)O[C@@]1(CC[C@@H](C)[C@@H](C[C@H](C)O)O1)[C@@H]2C,1.1
19,Cc1c(N)nc([C@H](CC(N)=O)NC[C@H](N)C(N)=O)nc1C(=O)N[C@H](C(=O)N[C@H](C)[C@@H](O)[C@H](C)C(=O)N[C@H](C(=O)NCCc1nc(-c2nc(C(=O)NCCC[S+](C)C)cs2)cs1)[C@@H](C)O)[C@@H](OC1OC(CO)C(O)C(O)C1OC1OC(CO)C(O)C(OC(N)=O)C1O)c1cnc[nH]1 (stereo not given in full),1.37
20,CC1=C[C@]23C(=O)[C@@H](C=C(COC(=O)c4ccccc4)[C@@H](O)[C@]2(O)[C@H]1OC(=O)c1ccccc1)[C@H]1[C@@H](C[C@H]3C)C1(C)C,1.04
21,C[C@@H](CO)NC(=O)[C@@H]1C=C2c3cccc4[nH]cc(c34)C[C@H]2N(C)C1,1.11
22,CNCC(O)c1ccc(O)c(OC)c1 (stereo not drawn) [Metanephrine hydrochloride DL],1.24
23,Clc1ccc(C(OCCN2CCCCC2)c2ccccc2)cc1 (stereo not given) [Cloperastine hydrochloride],0.882
24,CN1CCN(C(=O)OC2c3nccnc3C(=O)N2c2ccc(Cl)cn2)CC1 (stereo not given),1.11
25,CC(Cc1ccccc1)NCCC(c1ccccc1)c1ccccc1 (stereo not given) [Prenylamine lactate],0.767

# Given as tab-separated lines: entries from further up.
row	SMILES	normalized bacterial growth
1	N#CCCN [3-Aminopropionitrile fumarate]	1.07
2	Oc1ccc(Cl)cc1	1.2
3	Cc1cccc(C)c1NC1=NCCCS1 [Xylazine hydrochloride]	0.651
4	Cc1cccc(C)c1NC1=NCCCS1	1.11

# Going on with the list:

row,SMILES,normalized bacterial growth
1,CC(=O)NC1CCSC1=O (racemic) [N-Acetyl-DL-homocysteine Thiolactone],1.13
2,C[C@]12CC[C@H](O)C[C@H]1CC[C@@H]1[C@@H]2C[C@@H](O)[C@]2(C)[C@@H](C3=CC(=O)OC3)CC[C@]12O [Digoxigenin],1.17
3,C[C@]12CC[C@H](O)C[C@H]1CC[C@@H]1[C@@H]2C[C@@H](O)[C@]2(C)[C@@H](C3=CC(=O)OC3)CC[C@]12O,0.901
4,NCCc1c[nH]c2ccccc12 [Tryptamine hydrochloride],0.643
5,NCCc1c[nH]c2ccccc12,1.02
6,Clc1ccc(N2C[C@H]3CC[C@@H](C2)N3)nn1,1.23
7,CC(=O)O[C@H]1[C@H]2O[C@]23[C@@H]2CC[C@@H]4C[C@@H](O)CC[C@]4(C)[C@H]2CC[C@]3(C)[C@H]1c1ccc(=O)oc1,0.735
8,C=CC[C@]1(O)CC[C@H]2[C@@H]3CCC4=CC(=O)CCC4=C3C=C[C@@]21C,1.01
9,CN1C(=O)[C@]23CC4=CC=C[C@H](O)[C@H]4N2C(=O)[C@@]1(CO)SS3,0.0766
10,CNC(=O)ON=C(C)SC,0.94
11,COc1cc(OC)c2c(c1)O[C@H](c1ccc(OC)c(OC)c1)[C@@H](O)C2,0.764
12,COc1cc2c3cc1Oc1cc(ccc1O)C[C@@H]1c4c(cc(OC)c(O)c4Oc4cccc(c4)C[C@@H]3N(C)CC2)CC[N+]1(C)C [Tubocurarine chloride pentahydrate (+)],0.903
13,OC[C@@H]1CCCN2CCCC[C@H]12,1.09
14,C1CCc2nnnn2CC1 [Pentylenetetrazole],0.874
15,COc1cc2c(cc1O)[C@@H]1Cc3ccc(OC)c(O)c3CN1CC2,0.872
16,Cn1cnc(CCN)c1 [1-Methylhistamine dihydrochloride],0.968
17,C=C[C@H]1CN2CC[C@H]1C[C@@H]2[C@@H](O)c1ccnc2ccccc12 [Cinchonine],1.26
18,C=C[C@H]1CN2CC[C@H]1C[C@@H]2[C@@H](O)c1ccnc2ccccc12,0.685
19,C=C1[C@@H]2CC[C@H]3[C@]4(C)C[C@H](O[C@@H]5O[C@H](CO)[C@@H](OS(=O)(=O)O)[C@H](OS(=O)(=O)O)[C@H]5OC(=O)CC(C)C)C[C@@H](C(=O)O)[C@H]4CC[C@]3(C2)[C@@H]1O [Atractyloside potassium salt],1.05
20,CC(Cc1ccc(O)cc1)NCC(O)c1cc(O)cc(O)c1 (stereo not given) [Fenoterol hydrobromide],1.13
21,"CN(N=O)c1ccc(O)c(O)c1 [""Me-3,4-dephostatin""]",0.782
22,CSc1nc(NC(C)C)nc(NC(C)C)n1,1.17
23,CC1=CC(=O)C2=C(C)C[C@H](O)[C@@H]3[C@H](OC(=O)[C@H]3C)[C@H]12 [Austricine hydrate],1.1
24,C[C@]12CC[C@@H](O)C[C@@H]1CC[C@@H]1[C@@H]2CC[C@]2(C)C(=O)CC[C@@H]12,1.12
25,C[C@]12CC[C@@H](O)C[C@@H]1CC[C@@H]1[C@@H]2CC[C@]2(C)C(=O)CC[C@@H]12 [Androsterone],0.98

# Reprinted from above (2 entries):
row,SMILES,normalized bacterial growth
1,CC(=O)NC1CCSC1=O (racemic) [N-Acetyl-DL-homocysteine Thiolactone],1.13
2,C[C@]12CC[C@H](O)C[C@H]1CC[C@@H]1[C@@H]2C[C@@H](O)[C@]2(C)[C@@H](C3=CC(=O)OC3)CC[C@]12O [Digoxigenin],1.17

# From the supplement of paper PMC10398353
